Data taken from EP2371816A1, “Aminocyclohexenone, their preparation and use as medicament against oxidative stress” (ABIOGEN PHARMA S.p.A., priority 2010, dated 2011).

Tested on: cerebral oxidative stress induced in mice by doxorubicin
Experiment: In vivo assay of cerebral oxidative stress induced in mice by doxorubicin
Description: The assay was carried out on compounds (1) and (3)-(6) and on edaravone (E) as comparative compound.
10 mice were used for each treatment group. For each compound 50 mg/kg were administered intraperitoneally (IP) for three consecutive days (day 0, 1 and 2); half the animals (5) also received IP 16.7 mg/kg of doxorubicin immediately after the first treatment (day 0). On the day after the last administration (day 3) the animals were killed by neck dislocation and the brains were removed, weighed and frozen in liquid nitrogen.
For the analyses of oxidative stress, 100 mg/ml of brain homogenate was prepared in Hebe buffer (pH 7.4 EDTA/HEPES^(**)) containing a mixture of enzyme inhibitors (Leupeptin, Pepstatin, Aprotinin, BHA). • ^(*) Hypotonic Extraction Buffer • ^(**) 4-2-hydroxyethyl-1-piperazinyl-ethanesulphonic acid
The evaluation parameters were: • BrW/BWi: ratio between final brain weight and initial body weight (day 0); • Prot. Hmg: total proteins in the homogenate (BCA method, i.e. bicinchoninic acid); • Prot. Ox: oxidized proteins in the Hmg by means of a colorimetric method using […] (DNPH); • GSH: reduced glutathione in the supernatant (sn) of the Hmg, obtained after precipitation with metaphosphoric acid (MPA), by means of a colorimetric method using […] (DTNB); • CAT: catalase in the Hmg by a colorimetric method using potassium dichromate; • SOD: superoxide dismutase by a colorimetric method using SOD Reagent (xanthine, EDTA, nitroblue tetrazole, Na2CO3, BSA, i.e. bovine serum albumin); • GST: glutathione S-transferase in the supernatant by a colorimetric method using chlorodinitrobenzene (CDNB) and GSH; and • GPx: glutathione peroxidase in the supernatant after addition of GSH and tert butyl hydroperoxide (t-BuOOH), heating and precipitation with MPA; followed by GSH method with DTNB.
All the parameters, with the exclusion of Brain/BWi and Prot. Hmg, were normalized for total Hmg proteins (Table 3). The D value standard deviations and the % incidence relative to V are given in italics.
The mean % effect, on all the parameters simultaneously, of the triple treatment in the healthy animals, as mean percentage variation relative to the vehicle (table 4). This value is useful as an approximate safety index of the oxidative state of the brain, i.e. the capacity of the compounds of the invention not to alter cerebral homeostasis in healthy animals.
The effect of the tested compounds on the "oxidized" animals was given as % inhibition relative to the percentage variation due to doxorubicin alone. The effect of the compounds on the oxidized animals can be expressed both as a function of the values of the vehicle (healthy, vehicle only) and as a function of the value of its own control (healthy, compound only): • Vehicle: percentage [(Compound+D)/V]x100/[(V+D)/V]x100 • Its own: percentage [(Compound+D)/Compound]x100/[(V+D)/V]x100

[1] = difference doxorubicin minus vehicle
[2] = doxorubicin group (D), mean of n=5 experiments, normalized for total Hmg proteins

Which “%D Brain/BWi” value (% incidence of D relative to V) does the source give for `COc1cccc2c1C(=O)c1c(O)c3c(c(O)c1C2=O)C[C@@](O)(C(=O)CO)C[C@@H]3O[C@H]1C[C@H](N)[C@H](O)[C@H](C)O1` [D, doxorubicin, reference compound] here?
Its value is 93.1%.

What about the “%D CAT” value (% incidence of D relative to V) of the same compound?
The value was 86.8%.

What about the “%D GPX” value (% incidence of D relative to V) of the same compound?
The value was 90.1%.

And the “%D GSH” value (% incidence of D relative to V)?
Its value is 87.5%.

What about the “%D GST” value (% incidence of D relative to V) of the same compound?
The value was 90.9%.

What about the “%D Prot. Hmg” value (% incidence of D relative to V) of the same compound?
The value was 108.3%.

What about the “%D Prot. Ox” value (% incidence of D relative to V) of the same compound?
The value was 117.2%.

And the “%D SOD” value (% incidence of D relative to V)?
Its value is 85.7%.

And the “Diff. D-V Brain/BWi” value [1]?
The value was -1.3600 g/kg.

And the “Diff. D-V CAT” value [1]?
The value was -0.3027 U/mg.

And the “Diff. D-V GPX” value [1]?
The value was -0.5843 U/mg.

And the “Diff. D-V GST” value [1]?
The value was -1.9000 µg/mg.

What about the “Diff. D-V Prot. Hmg” value [1] of the same compound?
The value was 0.7397 mg/mL.

What about the “Diff. D-V Prot. Ox” value [1] of the same compound?
The value was 0.4347 µmol H2O2/mg.

And the “Diff. D-V SOD” value [1]?
The value was -5.3400 mU/mg.

And the CAT [2]?
The CAT was 1.9460 U/mg.

And the GPX [2]?
Its GPX is 5.0010 U/mg.

What about the GST [2] of the same compound?
Its GST is 18.5067 µg/mg.

What about the “Prot. Ox” value [2] of the same compound?
The value was 2.7720 µmol H2O2/mg.

And the SOD [2]?
The SOD was 31.2667 mU/mg.
